Measurements as given in PubChem BioAssay AID2417 (National Center for Advancing Translational Sciences (NCATS), 2010).
The whole screen tested about 140,000 compounds, of which about 4,300 (3.1%) were called active. Inconclusive results, whose numbers are uncertain, are shown with a selection of clear calls.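 Rule for the calls: active = readout at or below -70, meaning at least 70% loss of cells showing the perinucleolar compartment, a nuclear body marking cancer cells; inconclusive = readout between -30 and a set limit; inactive = the rest.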

Assay: High Content Assay for Compounds that inhibit the Assembly of the Perinucleolar Compartment;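 note: plate controls were DMSO wells for no effect and camptothecin positive control wells for full effect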
Details: PC3M PTB-GFP, PNC prevalence imaging, 16 h; at 10 µM; stronger effect = lower value
In short: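 PC3M cells stably expressing PTB-GFP, 750–1000 cells/well, treated 16 h at 37 °C with compound (23 nl of library stock), in duplicate. After paraformaldehyde fixation and Hoechst stain, imaged at 20x; PNC prevalence scored by image analysis.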

Row | SMILES | activity change (PNC), negative = inhibition
1 | Cc1cccc(C(=O)/C=C2/c3ccccc3CC(C)(C)N2C)c1 | inconclusive: -44.1%
2 | O=C1NC(=O)C(CC(=O)N(Cc2cccs2)C2(C(=O)NC3CCCCC3)CCCCC2)N1 (stereo not given) | inconclusive: -55.9%
3 | COc1cccc2cc(C(=O)N3C(C)CCCC3C)c(=O)oc12 (stereo not given) | inactive: 19.2%
4 | CON(C)c1nc(NCC(C)C)nc(OCC#N)n1 | inconclusive: -38.1%
5 | CN1CCN(C(=O)c2ccc(COc3ccc(Cl)cc3Cl)cc2)CC1 | inconclusive: -62.5%
6 | O=C(Cc1ccccc1)NCC(=O)OCC(=O)c1ccc([N+](=O)[O-])cc1 | inconclusive: -49.6%
7 | O=C(/C=C/c1ccc(Cl)c(Cl)c1)N1CCc2ccccc21 | inconclusive: -51.6%
8 | OC1CCN(C(c2ccc3ncccc3c2)c2nnnn2C2CCCCC2)CC1 (stereo not given) | inconclusive: -53%
9 | COc1ccccc1-c1cc2nc(C)c(CCC(=O)NCc3ccco3)c(C)n2n1 | inconclusive: -35.8%
10 | NC(=O)c1cc(Cc2ccccc2)sc1NC(=O)c1ccco1 | inconclusive: -35%
11 | Cc1cc2c(C)nc(N/N=C/c3ccc([N+](=O)[O-])cc3)nc2o1 | inconclusive: -74.8%
12 | CCCCOc1ccc(CNC(=O)NS(=O)(=O)c2ccc(OCC)cc2)cc1 | inconclusive: -32.1%
13 | Cc1ccc(NC2=C(NCCO)C(=O)c3ccccc3C2=O)cc1 | inactive: 25%
14 | COCCNC(=O)CSCc1nc(-c2ccc(SC)cc2)oc1C | active: -88.6%
15 | CCC(=O)Nn1cnc2c(c1=O)C1(CCCCC1)Cc1ccccc1-2 | active: -106%
16 | O=C(Nc1ccc2oc(-c3ccc4ccccc4c3)nc2c1)c1cccs1 | inconclusive: -49.6%
17 | O=C(N/N=C/c1ccc(-c2ccc(S(=O)(=O)Nc3ncccn3)cc2)o1)c1cc2ccccc2cc1O | inconclusive: -35.4%
18 | c1ccc(-n2ncc3c(N4CCC5(CC4)OCCO5)ncnc32)cc1 | inconclusive: -38.7%
19 | C/C(=N\NC(=O)COc1ccc(C(C)(C)C)cc1)c1ccc(-n2ccnc2)cc1 | inconclusive: -43.4%
20 | COc1ccc(C2CC(c3cccs3)=Nc3ccccc3S2)cc1OC (stereo not given) | inconclusive: -40.7%
21 | CCO/C(C)=N/n1c2nc3ccccc3nc2c2c(=O)n(CC(C)C)c(C)nc21 | inactive: 133%
22 | O=C(Cc1ccc(Cl)cc1)Nc1ccc(N2CCN(C(=O)c3ccco3)CC2)cc1 | inconclusive: -76.6%
23 | CCOC(=O)c1c(C)[nH]c(C(=O)CSc2nnc(-c3cccs3)n2Cc2ccccc2)c1C | inactive: -20.2%

Reprinted at random: three records from the list.
Row | SMILES | activity change (PNC), negative = inhibition
23 | CCOC(=O)c1c(C)[nH]c(C(=O)CSc2nnc(-c3cccs3)n2Cc2ccccc2)c1C | inactive: -20.2%
2 | O=C1NC(=O)C(CC(=O)N(Cc2cccs2)C2(C(=O)NC3CCCCC3)CCCCC2)N1 (stereo not given) | inconclusive: -55.9%
14 | COCCNC(=O)CSCc1nc(-c2ccc(SC)cc2)oc1C | active: -88.6%

Continued.

Row | SMILES | activity change (PNC), negative = inhibition
24 | Fc1ccccc1N1CCN(c2nc3ccccc3n3nnnc23)CC1 | inconclusive: -55.9%
25 | COc1cccc(-c2cc(=O)c3cc(NC(=O)c4ccccc4)ccc3[nH]2)c1 | inconclusive: -59.1%
26 | COc1ccc(CN2CCN(CC(O)Cn3c4ccccc4c4ccccc43)CC2)cc1 (stereo not given) | active: -102%
27 | CCOC(=O)Cc1csc(NC(=O)CSc2nc(C)cc(=O)[nH]2)n1 | inconclusive: -41.6%
28 | COc1ccc(-c2nnc(SCc3nnc(-c4cccs4)o3)n2CC2CCCO2)cc1 (stereo not given) | inconclusive: -42.2%
29 | CCCNC(=O)COc1ccccc1[N+](=O)[O-] | inconclusive: -33.2%
30 | Cc1ccc2nc3c(cc(C#N)c(=O)n3CCN3CCOCC3)c(=O)n2c1 | active: -122%
31 | Cc1cc(/C=N/NC(=O)c2ccncc2)c(C)n1-c1ccccc1 | inconclusive: -60.1%
32 | CCOC(=O)c1sc2cc([N+](=O)[O-])cc(SCCO)c2c1N | inconclusive: -43.8%
33 | CN(C)c1cc(N)c2ccccc2n1 (tested in a mixture with another compound) | inconclusive: -38.2%
34 | Fc1ccc(NC(=S)N2N=CCC2c2ccccc2)cc1 (stereo not given) | inactive: -14.9%
35 | CCOC(=O)C1CCN(C(=O)CS(=O)Cc2nc(-c3ccc(C)cc3)oc2C)CC1 (stereo not given) | inactive: 11.7%
36 | Cc1ccc(NC(=O)Cc2csc(-c3ccccc3)n2)cc1F | inconclusive: -46.1%
37 | CCOc1ccc(C(C)NC(=O)Nc2ccccc2C(=O)OC)cc1 (stereo not given) | inactive: 57.4%
38 | CCn1c(COc2ccc(=O)n(-c3ccccc3)n2)nnc1SCc1ccccc1C | inconclusive: -63.2%
39 | O=S(=O)(Nc1cccc2ccccc12)N1CCCC1 | inconclusive: -70.8%
40 | Cc1ccc(S(=O)(=O)N2CCC(C(=O)N3CCC[C@H]3C(=O)NCc3ccccc3)CC2)cc1 | inconclusive: -31.1%
41 | CCNC(=S)N=Nc1c(O)n(Cc2ccc(Cl)cc2)c2ccccc12 | inactive: -20.9%
42 | O=C(O)c1cccc(NC(=O)c2ccc(S(=O)(=O)c3ccccc3)cc2)c1 | inactive: 34.6%
43 | O=C(CNc1ccccc1)N/N=C/c1c[nH]c2ccccc12 | active: -119%
44 | O=C(NCCCc1ccccc1)c1cccs1 | inconclusive: -34.5%
45 | O=C(O)CN1CCN(Cc2ccc(Cl)cc2)C1=O | inconclusive: -71.8%
46 | O=C(CSc1nnc(-c2ccccc2Cl)n1Cc1ccco1)Nc1ccc2c(c1)OCCO2 | active: -96.2%

Row | SMILES | activity change (PNC), negative = inhibition
47 | CC(CSc1nc2ccccc2s1)Cn1c(N2CCCC2)nc2c1c(=O)[nH]c(=O)n2C (stereo not given) | inactive: -9.68%
48 | CCCn1c(NCc2cc(OC)ccc2OC)nc2ccccc21 | inactive: 26.5%
49 | O=C(Nc1ccc(NC(=O)C2CC2)nc1)c1cccs1 | active: -107%
50 | O=C(COc1ccc2oc3c(c2c1)CCCC3)Nc1ccccn1 | inactive: -26.2%
51 | Cc1ccc2[nH]c(=O)c(CN(CC3CCCO3)C(=S)Nc3ccccc3)cc2c1 (stereo not given) | inactive: 25.7%
52 | O=C(C(Sc1ccccc1)c1ccccc1)N1CCOCC1 (stereo not given) | inactive: -13.8%
53 | Nc1ncnc(N2CCOCC2)c1N | inconclusive: -46.1%
54 | Cc1ccc2c(c1)-c1c(ssc1=S)C(C)(C)N2C(=O)CSC1=NCCS1 | inconclusive: -40%
55 | C/C(=N\OCC(=O)Nc1cc(C)cc(C)c1)c1ccc2c(c1)OCCO2 | inconclusive: -39.7%
56 | C=CCn1c(SCc2cc(=O)n3ccsc3n2)nnc1C1CCCCC1 | inconclusive: -36%
57 | CN(C)c1ccc(/C=C/C(=O)c2ccc3c(c2)OCCO3)cc1[N+](=O)[O-] | inconclusive: -37.6%
58 | Cc1cc(Cl)ccc1Oc1ncnc2oc(-c3ccccc3)cc12 | active: -94.2%
59 | CCOC(=O)C1=C(C)N=C2SC(C(=O)OC)=CC(=O)N2C1c1cc(OC)c(OC)c(OC)c1 (stereo not given) | inconclusive: -55.2%
60 | COc1ccc(OC)c(S(=O)(=O)Nc2ccccc2SC)c1 | inconclusive: -31%
61 | O=c1c2c3c(sc2nc2n1CCCCC2)CCCCC3 | inconclusive: -68.8%
62 | CC(C)c1nc(=S)c2ccccc2[nH]1 | inactive: -16.9%
63 | COC(=O)C1=C(C)N(CCc2ccc(OC)c(OC)c2)C(=O)/C1=C\c1ccc(O)cc1 | active: -116%
64 | COc1ccc(C2(C(=O)Nc3c(C)n(C)n(-c4ccccc4)c3=O)CCCC2)cc1OC | inconclusive: -52%
65 | COC(=O)c1ccc(Oc2nc(NC(C)C)nc(N(C)C)n2)cc1 | inconclusive: -50.6%
66 | COc1ccc(C(C#N)N2CCCCC2)cc1OC (stereo not given) | inactive: 10.3%
67 | CCC(C(=O)NC1CCCCC1)n1c(SCc2ccccc2F)nc2ccncc21 (stereo not given) | inactive: 43.8%
68 | CC(=O)N1CCN(CC(O)COc2ccc(OCc3ccccc3)cc2)CC1 (stereo not given) | inconclusive: -30.1%
69 | CC(C)(C)NC(=O)c1cc(C(C)(C)C)c(O)c(C(C)(C)C)c1 | inactive: 44.1%

Row | SMILES | activity change (PNC), negative = inhibition
70 | CCOC(=O)CN1CC23C=CC(O2)C(C(=O)NCc2ccc(C)cc2)C3C1=O (stereo not given) | inactive: -27.6%
71 | Cc1ccc(S(=O)(=O)NCC(=O)OC2CCOC2=O)cc1 (stereo not given) | inconclusive: -43.2%
72 | CCCc1nc2c(C)ccc(C)c2c(N)c1CC | inconclusive: -39.3%
73 | CCN(CC)S(=O)(=O)c1ccc(-c2nnc(SCc3nnc(-c4ccc(C)cc4)o3)n2CC)cc1 | inconclusive: -32.1%
74 | Cc1nn(C)c(C)c1/C=N/NC(=O)CCn1nc(C)c([N+](=O)[O-])c1C | inconclusive: -51.8%
75 | CCC(=O)N1CCN(c2ccc(OC)cc2[N+](=O)[O-])CC1 | inactive: -25.8%
76 | Nc1cc(N)nc(SCc2ccccc2)n1 | inconclusive: -50.5%
77 | CC1Oc2ccccc2OC1(O)c1ccc2ccccc2n1 (stereo not given) | inconclusive: -54.1%
78 | Cc1c(/C(O)=C2/C(=O)C(=O)N(CCN3CCOCC3)C2c2cccnc2)cnn1-c1ccccc1 (stereo not given) | inconclusive: -34%
79 | CN(C)c1ccnc(NCc2ccccc2)c1C#N | inconclusive: -36.4%
80 | COc1ccc(/C=C2/SC(=O)N(NS(=O)(=O)c3ccccc3)C2=S)cc1OC | inactive: -4.06%
81 | NC(=O)c1cccc(S(=O)(=O)N2CC(c3ccccc3)CC2=O)c1 (stereo not given) | inconclusive: -67.7%
82 | COc1ccc(/C=N/n2c(SC)nnc2-c2ccccc2)c(OC)c1OC | active: -125%
83 | COc1ccc(NS(=O)(=O)c2cc(NC(=O)c3cccs3)ccc2N2CCCC2)cc1 | inconclusive: -50.7%
84 | COc1ccc(-c2nc(N3CCC(C)CC3)[nH]c(=O)c2C#N)cc1 | inconclusive: -50.3%
85 | COC(=O)/C=C1\S/C(=N/NC(=O)c2ccccc2)NC1=O | inactive: -18.2%
86 | Cc1ccc(NS(=O)(=O)c2cccc(C(=O)O)c2)c(C)c1 | inconclusive: -33.3%
87 | Clc1cccc(CN2CCCCCCC2)c1Cl | inconclusive: -43.2%
88 | O=Cc1c(C(=O)O)n(CC(=O)O)c2ccccc12 | inconclusive: -31.9%
89 | CC(=O)/C(CN1CCCCC1)=N\O | inconclusive: -49.4%
90 | COc1ccc(NC(=O)C23CC4CC(C2)CC(n2cnc(Br)n2)(C4)C3)cc1Cl | inconclusive: -50.2%
